According to PubChem BioAssay AID743255 (National Center for Advancing Translational Sciences (NCATS), 2014):
Screen size: about 390,000 compounds; about 910 (0.23%) were called active. The shares of active, inactive and inconclusive entries below differ from those in the screen. Calls follow the shape of the dose curve; as a rule, active = well fitted inhibition curve with a large enough effect; inconclusive = small, poorly fitted or top-dose-only effect; inactive = no such curve, though single readings can be large or run the other way. A potency beside an inconclusive call is a rough fit, not a confirmed value.

The chains behind the UniProt entries cited, without tags or fusion partners. Where a name states a change or a piece, a line headed by the entry shows the natural chain unless it says otherwise.
UniProt O94782: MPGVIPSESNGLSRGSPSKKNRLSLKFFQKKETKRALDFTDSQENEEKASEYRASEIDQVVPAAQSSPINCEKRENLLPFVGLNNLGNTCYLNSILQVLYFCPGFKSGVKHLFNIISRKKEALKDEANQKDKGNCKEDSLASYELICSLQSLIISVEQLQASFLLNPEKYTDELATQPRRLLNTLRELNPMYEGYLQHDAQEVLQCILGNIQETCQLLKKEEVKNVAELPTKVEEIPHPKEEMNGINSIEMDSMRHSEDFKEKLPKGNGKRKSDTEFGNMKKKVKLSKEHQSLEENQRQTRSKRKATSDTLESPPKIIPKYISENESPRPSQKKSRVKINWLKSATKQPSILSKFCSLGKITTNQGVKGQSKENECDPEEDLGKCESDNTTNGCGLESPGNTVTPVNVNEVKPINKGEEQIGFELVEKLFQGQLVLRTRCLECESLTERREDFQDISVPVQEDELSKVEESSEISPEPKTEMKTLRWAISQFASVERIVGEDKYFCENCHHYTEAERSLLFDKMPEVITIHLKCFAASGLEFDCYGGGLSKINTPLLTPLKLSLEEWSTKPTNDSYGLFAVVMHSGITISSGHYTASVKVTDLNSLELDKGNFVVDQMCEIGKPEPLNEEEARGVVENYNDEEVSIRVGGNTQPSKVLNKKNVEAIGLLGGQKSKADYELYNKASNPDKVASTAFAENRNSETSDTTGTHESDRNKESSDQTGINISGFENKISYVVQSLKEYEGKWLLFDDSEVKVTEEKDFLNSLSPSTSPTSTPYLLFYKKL

What follows are compounds tested against Ubiquitin carboxyl-terminal hydrolase 1 (Homo sapiens) (UniProt O94782) (assay: Inhibitors of USP1/UAF1: Primary Screen). Conditions: recombinant USP1/UAF1, Ub-Rhodamine cleavage fluorescence; series mostly up to 57.1 µM.
Procedure, shortened: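 In this screen, compounds sit with the deubiquitinase complex (1nM) for 15 min at room temperature before Ub-Rho is added at 150nM final. Fluorescence rise is then followed for 6 reads every 60 seconds.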
Also: nearly all actives have a fitted effect of over 60% in size.
Potency is read from the fitted curve at half-maximal effect.

| SMILES | Potency |
| --- | --- |
| O=C(CN1c2cccc3cccc(c23)S1(=O)=O)Nc1ccc(F)c(F)c1F | inconclusive: 5.62 µM [inhibitor, full curve, poor fit] |
| Cc1ccc(S(=O)(=O)N2CCCCC2)cc1NC(=O)c1ccc(=O)[nH]c1 | inconclusive: 0.141 µM [inhibitor, full curve, poor fit] |
| CCc1ccc(CNC(=O)c2nn(C)c3c2CS(=O)(=O)c2ccccc2-3)cc1 | inactive |
| CC1=C(C(=O)NCCc2ccc(Cl)cc2)C2(CCCCC2)OC1=O | inactive |
| CC(C)(C)OC(=O)N(Cc1ccccc1)Cc1ccccc1OCc1cccc(NC(=O)c2ccccc2)c1 | inconclusive: 0.398 µM [inhibitor, full curve] |
| COc1ccc(OC)c(S(=O)(=O)Oc2ccc(N)c3ccccc23)c1 | inconclusive: 39.8 µM [inhibitor, partial curve] |
| O=c1oc2ccc(Br)cc2cc1-c1nc(-c2ccccc2)no1 | inconclusive: 0.562 µM [inhibitor, full curve, poor fit] |
| Fc1ccc2c(c1)Sc1ccc(Cl)cc1CC2N1CCN(CCC2OCCO2)CC1 (stereo not given) | inactive |
| Cc1[nH][nH]c(=O)c1C(c1ccc(-c2ccc(Cl)cc2)o1)c1c(C)[nH][nH]c1=O | inconclusive: 35.5 µM [inhibitor, partial curve] |
| COc1cc(C(=O)N/N=C/c2coc3ccccc3c2=O)cc(OC)c1OC | inconclusive: 25.1 µM [inhibitor, partial curve] |
| COc1ccc(-c2cccc([C@H]3[C@@H]4C=CCC[C@@]4(C)C(=O)N3Cc3ccccc3)c2)cc1 | inconclusive: 8.91 µM [inhibitor, partial curve, poor fit] |
| CCOC(=O)Cn1nc2oc(=O)c(CCN3CCN(c4ccccc4OC)CC3)c(C)c2c1C | inconclusive: 28.2 µM [inhibitor, partial curve] |
| CCOC(=O)c1c(C)oc2c1c(C=NCCO)c(O)c1ccccc12 | inconclusive: 0.251 µM [inhibitor, full curve, poor fit] |
| Cc1cc(C)c(NC(=O)CSc2nc(=O)n(Cc3ccco3)c3c2CCC3)c(C)c1 | inconclusive: 5.01 µM [inhibitor, partial curve] |
| Cc1nc(N2CCN(c3ccccn3)CC2)c2c(C)c(C(=O)N3CCN(c4ccc(F)cc4)CC3)sc2n1 | inconclusive: 12.6 µM [inhibitor, partial curve, poor fit] |
| CCn1nc(C(=O)OCC(=O)Nc2nc(-c3ccc(OC)cc3)cs2)c2ccccc2c1=O | inactive |
| C=CCCC(=O)N1C[C@H]2CON(C)[C@H]2C[C@H]1c1ccc(Br)cc1 | inconclusive: 0.251 µM [inhibitor, full curve, poor fit] |
| CC(C)C1=C2OC(N)=C(C#N)C(C#N)=C2C(C)CC1 (stereo not given) | inconclusive: 31.6 µM [inhibitor, partial curve] |
| Cc1csc2nc(-c3cccc(NC(=O)c4cccc(F)c4)c3)cn12 | inconclusive: 112 µM [inhibitor, partial curve, poor fit] |
| N#Cc1cccc(NC(=O)CSc2cccc[n+]2[O-])c1 | inconclusive: 31.6 µM [inhibitor, partial curve, poor fit] |

| SMILES | Potency |
| --- | --- |
| CCc1ccc(N2CC(C(=O)N3CCN(S(=O)(=O)c4cccc(F)c4)CC3)CC2=O)cc1 (stereo not given) | inconclusive: 8.91 µM [inhibitor, partial curve, poor fit] |
| Cc1ccc(-n2c(SCC(=O)N3CC(=O)Nc4ccccc43)nc3ccccc3c2=O)cc1 | inactive |
| COc1cc(O)c(C(=O)CC(=O)c2ccncc2)c(OC)c1 | inconclusive: 4.47 µM [inhibitor, partial curve] |
| O=C(CCl)N1c2ccccc2Oc2ccc3ccccc3c21 | active: 22.4 µM |
| O=C(CNC(=O)c1ccccc1Br)N/N=C/c1ccco1 | inconclusive: 0.631 µM [inhibitor, full curve, poor fit] |
| CC1CCCCN1CCNC(=O)c1ccc2c(=O)n(CCc3ccccc3)c(=O)[nH]c2c1 (stereo not given) | inactive |
| CS(=O)(=O)Nc1ccc2c(c1)[C@H]1C[C@H](CC(=O)NCc3ccccc3)O[C@H](CO)[C@H]1O2 | inconclusive: 0.112 µM [inhibitor, full curve, poor fit] |
| Cc1cc(C)c(S(=O)(=O)N2CCCCC2)c(C)c1N(C)S(=O)(=O)c1ccccc1 | inconclusive: 1.26 µM [inhibitor, full curve, poor fit] |
| O=C(NCC1(c2ccccc2)CCCC1)C(=O)Nc1cccc(C(F)(F)F)c1 | inconclusive: 6.31 µM [inhibitor, single point] |
| Cc1nn(C)cc1S(=O)(=O)N1CCN(Cc2cccc(Cl)c2)CC1 | inconclusive: 44.7 µM [inhibitor, partial curve, poor fit] |
| COc1ccc(CCN(C)CC(=O)Nc2ccc(F)c(Cl)c2)cc1OC | inconclusive: 0.708 µM [inhibitor, partial curve, poor fit] |
| c1csc(-c2nc3c4ccccc4c4ccccc4c3[nH]2)c1 | inactive |
| Cc1nn(C)cc1CN(C)C(=O)c1nn2c(c1Cl)NC(c1cccs1)CC2C(F)(F)F (stereo not given) | inconclusive: 31.6 µM [inhibitor, partial curve] |
| O=c1cc(NCC2CCCO2)[nH]c(=O)n1-c1ccc(Cl)cc1 (stereo not given) | inconclusive: 0.398 µM [inhibitor, full curve, poor fit] |
| N=c1c(C(=O)NCC2CCCO2)cc2c(=O)n3ccccc3nc2n1Cc1cccnc1 (stereo not given) | inconclusive: 35.5 µM [inhibitor, partial curve] |
| C[C@@]12C(=O)Nc3ccc(F)cc3C(=O)N1[C@H]1c3cc(Cl)ccc3OC[C@@H]1[C@@H]2c1ccccc1 | inactive |
| O=C(N/N=C/c1cc(Br)c(O)c(Br)c1)c1cc2c(ccc3ccccc32)o1 | inconclusive: 31.6 µM [inhibitor, single point] |
| CCOC(=O)COn1c(-n2nc(C)cc2C)nc2ccccc2c1=O | inconclusive: 4.47 µM [inhibitor, partial curve] |
| NC1=NC(=O)/C(=C/c2ccc(-c3ccc(S(N)(=O)=O)cc3)o2)S1 | inconclusive: 44.7 µM [inhibitor, partial curve, poor fit] |
| COc1cc(C(=O)NCCOc2cc(C)ccc2C(C)C)cc(OC)c1OC | inconclusive: 100 µM [inhibitor, partial curve, poor fit] |

| SMILES | Potency |
| --- | --- |
| COc1ccc(OC)c(S(=O)(=O)N(C)CC(=O)N2CCc3ccccc3C2)c1 | inconclusive: 31.6 µM [inhibitor, partial curve] |
| O=C(NCc1cccc(Cl)c1)c1cccn1-c1nnc(N2CCCC2)s1 | inconclusive: 56.2 µM [inhibitor, partial curve, poor fit] |
| Cc1cc(C)c(Cn2c3ccccc3c3cnn(CC(=O)NCCCc4ccccc4)c(=O)c32)c(C)c1 | inactive |
| N#CC(=C1C=C(Br)C(=NO)C=C1Cl)c1ccc(Cl)cc1 | inconclusive: 44.7 µM [inhibitor, partial curve, poor fit] |
| COC(=O)C(C)N1C(=O)S/C(=C/c2cc(C)n(-c3ccccn3)c2C)C1=O (stereo not given) | inactive |
| CCCCn1c(N)c(N(CC(C)C)C(=O)C2=COCCO2)c(=O)[nH]c1=O | inactive |
| Cc1ccc(CNC(=O)c2cn(C)c3ccc(S(=O)(=O)N(C)C4CCCCC4)cc3c2=O)cc1 | inconclusive: 0.631 µM [inhibitor, full curve, poor fit] |
| Cc1ccc(-n2sc3ccccc3c2=O)cc1S(=O)(=O)N1CCCCC1 | inactive |
| O=C1CN(C(=O)c2cc3ccccc3oc2=O)C(c2ccccc2)c2cc(F)ccc2N1 (stereo not given) | inconclusive: 20 µM [inhibitor, partial curve] |
| O=C(c1ccccc1)N1CCc2cc(CNS(=O)(=O)c3ccccc3Cl)ccc21 | inconclusive: 3.55 µM [inhibitor, full curve, poor fit] |
| CNS(=O)(=O)c1cn(CC(=O)Nc2ccc(OC)c(Cl)c2)cc1S(=O)(=O)NC | inconclusive: 7.08 µM [inhibitor, full curve] |
| CC(C)CCNC(=O)C(=O)Nc1c2c(nn1-c1ccccc1)CS(=O)(=O)C2 | inconclusive: 50.1 µM [inhibitor, partial curve, poor fit] |
| Nc1ccccc1Nc1cc(-c2ccccc2)nn1-c1cccc(Cl)c1 | inactive |
| CC(CNC(=O)Cn1ncc2c3ccccc3n(Cc3cccc(Cl)c3)c2c1=O)c1ccccc1 (stereo not given) | inconclusive: 56.2 µM [inhibitor, partial curve, poor fit] |
| CCOC(=O)C1CCN(C(=O)c2cccc(NS(=O)(=O)c3ccc(F)c(F)c3)c2)CC1 | inconclusive: 5.62 µM [inhibitor, partial curve] |
| COc1ccc(OC)c(NC(=O)C2CCN(S(=O)(=O)c3ccc(C)cc3)CC2)c1 | inconclusive: 63.1 µM [inhibitor, partial curve, poor fit] |
| Fc1ccccc1-c1nc(NCc2ccccc2)c2ccccc2n1 | inconclusive: 10 µM [inhibitor, partial curve] |
| O=c1c2cc(O)c(O)cc2oc2cc(O)c(C3OC(CO)C(O)C(O)C3O)c(O)c12 (stereo not given) | inactive |
| CCN(CC(=O)NCc1ccc(Cl)cc1)CC(=O)NC1(C#N)CCCC1 | inconclusive: 5.62 µM [inhibitor, partial curve, poor fit] |
| CCC(C(=O)Nc1ccc(N2CCOCC2)c(S(=O)(=O)Nc2ccccc2OC)c1)c1ccccc1 (stereo not given) | inconclusive: 4.47 µM [inhibitor, full curve, poor fit] |

Copied from the list:
Value of `Nc1ccccc1Nc1cc(-c2ccccc2)nn1-c1cccc(Cl)c1` under Potency: inactive
Value of `Cc1cc(C)c(Cn2c3ccccc3c3cnn(CC(=O)NCCCc4ccccc4)c(=O)c32)c(C)c1` under Potency: inactive
